Reference: PubChem BioAssay AID1159578 (Peter MacCallum Cancer Centre, 2015)
In all, the deposit lists about 18,000 reagents; this is a random part of them. Over the whole deposit, about 1,030 (5.7%) got an active call. 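Inactive calls also include pools with fewer than 3300 nuclei, whose migration was not assessed.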 Raw values vary from plate to plate and are shown uncorrected. Entries without a mark were called inactive. Further read-outs or replicates are left out here.

Purpose: 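Knock-downs that alter how fast lymphatic endothelial cells migrate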 (primary screen)
Cell system: human lymphatic endothelial cells
Reagent: siRNA pool against human genes, 40 nM
Time to read-out: 48 h after transfection
Measured: 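High-content imaging of dye-stained cells in a scratch assay measures filled wound area and nuclei per well; duplicate means given as ratio to mock and robust z-score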
Reading the numbers: migration robust z-score: higher = faster migration into the scratch; nuclei per well: higher = more cells in the well
Hit rule: 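Pools averaging fewer than 3300 nuclei are never called; remaining pools count as changed when migration robust z lies outside -2 to 2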
Meaning of the calls: active = migration changed; inactive = no migration change, or too few cells

no.	gene	migration robust z-score	migration class with cell-count check	nuclei per well, duplicate mean
1	SSX6P (SSX family member 6, pseudogene)	1.81	migration z between -2 and 2; enough cells	6589
2	OASL (2'-5'-oligoadenylate synthetase like)	-0.76	migration z between -2 and 2; enough cells	5064
3	TMEM86B (transmembrane protein 86B)	-1.24	migration z between -2 and 2; enough cells	3898
4	GAL3ST4 (galactose-3-O-sulfotransferase 4)	1.19	migration z between -2 and 2; enough cells	5458
5	CEBPD (CCAAT enhancer binding protein delta)	-2.95	under 3300 nuclei; migration not judged	2986
6	EPC2 (enhancer of polycomb 2)	-1.07	migration z between -2 and 2; enough cells	5616
7	HS1BP3 (HCLS1 binding protein 3)	-0.72	migration z between -2 and 2; enough cells	5791
8	RDH13 (retinol dehydrogenase 13)	1.56	migration z between -2 and 2; enough cells	5708
9	MRPL37 (mitochondrial ribosomal protein L37)	-0.2	migration z between -2 and 2; enough cells	4520
10	NAV2 (neuron navigator 2)	-1.39	migration z between -2 and 2; enough cells	4641
11	SERPINB11 (serpin family B member 11)	0.94	migration z between -2 and 2; enough cells	6147
12	CUL7 (cullin 7)	-1.5	migration z between -2 and 2; enough cells	5272
13	IKBKG	-0.83	migration z between -2 and 2; enough cells	5456
14	PLCB2 (phospholipase C beta 2)	-0.1	migration z between -2 and 2; enough cells	6058
15	POLR1D (RNA polymerase I and III subunit D)	-0.52	migration z between -2 and 2; enough cells	4858
16	DHDDS (dehydrodolichyl diphosphate synthase subunit)	0.8	migration z between -2 and 2; enough cells	6528
17	TAOK1 (TAO kinase 1)	-0.08	migration z between -2 and 2; enough cells	6904
18	TMEM61 (transmembrane protein 61)	-0.12	migration z between -2 and 2; enough cells	3829
19	IRAG1 (inositol 1,4,5-triphosphate receptor associated 1)	-0.4	migration z between -2 and 2; enough cells	6414
20	BET1 (Bet1 golgi vesicular membrane trafficking protein)	-0.04	migration z between -2 and 2; enough cells	4989
21	ZNF653 (zinc finger protein 653)	0.69	migration z between -2 and 2; enough cells	5934
22	RPLP0 (ribosomal protein lateral stalk subunit P0)	-1.02	migration z between -2 and 2; enough cells	4327
23	RSPH1 (radial spoke head component 1)	0.68	migration z between -2 and 2; enough cells	6090
24	C12orf76 (chromosome 12 open reading frame 76)	0.94	migration z between -2 and 2; enough cells	5046
25	SLC22A23	-0.6	migration z between -2 and 2; enough cells	6782
26	ACKR4 (atypical chemokine receptor 4)	-0.75	migration z between -2 and 2; enough cells	5559
27	DNASE2 (deoxyribonuclease 2, lysosomal)	-0.96	migration z between -2 and 2; enough cells	5051
28	RHOU (ras homolog family member U)	0.29	migration z between -2 and 2; enough cells	6234
29	CYSLTR2 (cysteinyl leukotriene receptor 2)	-0.08	migration z between -2 and 2; enough cells	4285
30	TTC38 (tetratricopeptide repeat domain 38)	0.19	migration z between -2 and 2; enough cells	5932
31	NCKAP1L (NCK associated protein 1 like)	-4.64	under 3300 nuclei; migration not judged	2550
32	TMEM121 (transmembrane protein 121)	-0.02	migration z between -2 and 2; enough cells	6024
33	TEX10 (testis expressed 10)	0.52	migration z between -2 and 2; enough cells	5013
34	PRRC1 (proline rich coiled-coil 1)	0.1	migration z between -2 and 2; enough cells	4458
35	BCL2L1 (BCL2 like 1)	-0.94	migration z between -2 and 2; enough cells	4577
36	SRGAP1 (SLIT-ROBO Rho GTPase activating protein 1)	1.46	migration z between -2 and 2; enough cells	6666
37	EWSR1 (EWS RNA binding protein 1)	1.35	migration z between -2 and 2; enough cells	3956
38	NDUFA8 (NADH:ubiquinone oxidoreductase subunit A8)	-2.54 (active)	migration z below -2; enough cells	3882
39	SPARC (secreted protein acidic and cysteine rich)	-1.34	migration z between -2 and 2; enough cells	3873

Look-ups from above.
Under “migration robust z-score”, RHOU (ras homolog family member U) is entered as 0.29
POLR1D (RNA polymerase I and III subunit D), nuclei per well, duplicate mean: 4858
Result of TMEM121 (transmembrane protein 121) in “migration robust z-score”: -0.02
Value of NDUFA8 (NADH:ubiquinone oxidoreductase subunit A8) in “migration class with cell-count check”: migration z below -2; enough cells (active)
OASL (2'-5'-oligoadenylate synthetase like), migration robust z-score = -0.76
